In PubChem BioAssay AID2685 (National Center for Advancing Translational Sciences (NCATS), 2010):
Some of the results follow. Shown are side measurements of this screen, not its main read-out; they come without a call. Most of these compounds were active or inconclusive in the main read-out, so they are no random draw. The note in brackets gives the kind of curve behind each potency; many fits are weak.

Assay: qHTS Assay for Lipid Storage Modulators in Drosophila S3 Cells;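 for cell number change: cells counted by Cell Tracker Red CMTPX staining in the red channel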
Conditions: BODIPY lipid droplet fluorescence, 18-24 h; for cell number change: measured here: cell count max response, cells fed with added oleic acid
How it was run: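 Drosophila S3 cells loaded with oleic acid (400 uM, as added) and compounds at several concentrations; lipid droplets imaged by 488-nm laser-scanning cytometry, 500–530 nm intensity and object ratio to cell channel. Percent activity normalized to 20 uM Triacsin C.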

[1] = measured here: lipid fluorescence (Fed channel) AC50, cells fed with added oleic acid
[2] = measured here: cell number channel AC50, cells fed with added oleic acid

| Structure (SMILES) | cell number change | AC50 [1] | AC50 [2] |
| --- | --- | --- | --- |
| CC(C(=O)NC1CC1)c1ncc(C(F)(F)F)cc1Cl (configuration not stated) | -16% |  |  |
| Cc1cc(F)ccc1S(=O)(=O)N1CCCOC1CNC(=O)C(=O)NC1CCCCC1 (configuration not stated) | -9.45% | 6.51 µM [rising, single point] |  |
| Cc1cccn2c(=O)c(C=O)c(N3CCCCC3)nc12 | 6.89% | 25.9 µM [rising, partial curve] |  |
| CCCC(CCC(=O)Nc1cc([N+](=O)[O-])ccc1O)C(=O)O (configuration not stated) | -61.2% |  |  |
| COc1ccc(CC(=O)c2ccc(O)cc2O)cc1 | 6.79% |  |  |
| O=C(/C=C/NNC(=O)c1ccccc1)c1ccc(Br)cc1 | -10.5% |  | 0.731 µM [rising, single point] |
| COC(CNC(=O)c1ccc(-n2c(=S)[nH]c3ccccc3c2=O)cc1)OC | -86.8% |  | 29.1 µM [falling, single point] |
| COC(=O)C(C(=O)OC)c1ccc(NC(=O)c2cccc(Cl)c2)cc1 | 8.31% | 16.4 µM [falling, partial curve] |  |
| O=C(NCc1ccco1)c1cc(-c2ccncc2)nc2ccccc12 | -10.2% |  |  |
| O=C(O)c1cc(-c2ccc(Br)s2)nc2ccccc12 | 7.91% | 0.82 µM [rising, full curve] |  |
| O=C(Cn1c(=O)c2ccccc2n(CC(=O)N2CCCCC2)c1=O)N1CCCCC1 | 38.9% | 2.31 µM [rising, partial curve, poor fit] | 29.1 µM [rising, single point] |
| COC(=O)c1ccccc1NC(=O)N1CCN(C/C=C/c2ccccc2)CC1 | 18.8% | 23.1 µM [falling, single point] |  |
| COc1ccccc1N1CCN(C(=O)CCc2ccc(S(=O)(=O)NC(C)C)cc2)CC1 | -1.76% | 0.517 µM [falling, single point] |  |
| CCN(CC)S(=O)(=O)c1cccc(-c2nnc(SC(C)C#N)n2Cc2ccccc2)c1 (configuration not stated) | 24.3% |  | 1.84 µM [rising, full curve, poor fit] |
| COc1ccc(/C=C2\CCc3ccccc3C2=O)cc1Cn1nc(C)cc1C |  | 0.58 µM [rising, single point] | 2.06 µM [rising, partial curve] |
| COCCn1c(N)c(NCc2ccccc2)c(=O)[nH]c1=O | 13.7% | 2.06 µM [rising, full curve, poor fit] |  |
| C=CCn1c(O)c(N=Nc2ccccc2O)c2ccccc21 | -77.5% |  | 14.6 µM [falling, partial curve] |
| CC1=CC(=O)N(c2ccc(C)cc2)C1c1ccc(Cl)cc1 (configuration not stated) | -18.7% | 0.58 µM [falling, single point] |  |
| CC(Sc1nc2ccccc2c(=O)[nH]1)C(=O)O (configuration not stated) | -60.1% | 29.1 µM [falling, single point] | 3.66 µM [falling, full curve] |
| Cc1cc(C(=O)N2CCN(c3ccccc3O)CC2)c(C)o1 | 40.1% | 29.1 µM [rising, partial curve] | 29.1 µM [rising, single point] |

In a second layout: entries from further up.
Structure (SMILES)	cell number change	AC50 [1]	AC50 [2]
O=C(/C=C/NNC(=O)c1ccccc1)c1ccc(Br)cc1	-10.5%		0.731 µM [rising, single point]
CC1=CC(=O)N(c2ccc(C)cc2)C1c1ccc(Cl)cc1 (configuration not stated)	-18.7%	0.58 µM [falling, single point]	

The listing continues:

| Structure (SMILES) | cell number change | AC50 [1] | AC50 [2] |
| --- | --- | --- | --- |
| COc1ccc(C=O)cc1OC(=O)C1(C)Cc2ccccc2C(=O)O1 (configuration not stated) | 18.2% | 0.82 µM [rising, full curve, poor fit] |  |
| CC(CCc1ccccc1)NC(=O)c1ccc(F)cc1 (configuration not stated) | 10.1% | 0.0651 µM [rising, full curve, poor fit] |  |
| Cc1csc(=O)n1CCC(=O)OCC(=O)NNC(=O)c1ccc(Br)cc1 | -2.88% | 0.058 µM [rising, full curve, poor fit] |  |
| COCCCn1c2nc3ccccc3nc2c2c(=O)n(CC3CCCO3)cnc21 (configuration not stated) | 6.32% | 6.51 µM [rising, single point] |  |
| COc1ccc2sc(C)nc2c1NC(C)=O | 5.12% | 1.3 µM [rising, full curve] |  |
| COc1cc(OC)c(C2Oc3nc(SC)nnc3-c3ccccc3N2C(C)=O)cc1OC (configuration not stated) | 1.82% |  |  |
| Cn1nc(OCc2ccccc2)ccc1=O | -39.3% | 32.6 µM [falling, single point] | 29.1 µM [falling, single point] |
| Cc1ccc(S(=O)(=O)N2CCOCC2)cc1N/N=C(\C#N)c1nc2ccccc2[nH]1 | -23.7% |  |  |
| COc1cc2cc(CN(C(=O)Nc3ccccc3)C3CCCC3)c(=O)[nH]c2cc1OC | 37.2% | 29.1 µM [rising, single point] | 29.1 µM [rising, single point] |
| Nc1oc2ccc(F)cc2c(=O)c1C=O | -0.459% | 29.1 µM [rising, single point] |  |
| COCCN(C(=O)c1cc2c(s1)CCCCC2)c1c(N)n(CC(C)C)c(=O)[nH]c1=O | 16.9% | 0.651 µM [falling, full curve] |  |
| CCCCOc1ccccc1NC(=O)c1ccco1 | 18.7% | 2.31 µM [rising, partial curve] | 0.206 µM [rising, full curve, poor fit] |
| COc1ccc(C(=O)Nc2cccc(OC(=O)c3ccc(C)c(C)c3)c2)cc1 | -21.2% | 16.4 µM [falling, single point] |  |
| C/C(=N/NS(=O)(=O)c1ccccc1)c1ccc(NC(=O)C(F)(F)F)cc1 | 19.3% |  |  |
| CCOc1ccccc1OCC(=O)NNC(=O)Cn1cnc2c1c(=O)n(C)c(=O)n2C | -28.6% | 3.66 µM [falling, full curve] | 1.46 µM [falling, full curve, poor fit] |
| Cc1ccc(N=Cc2c(O)c3ccccc3oc2=O)c(C)c1 |  | 29.1 µM [rising, single point] |  |
| COc1ccc(-n2c(-c3ccc(Cl)cc3)c[nH]c2=S)cc1 | 112% |  | 23.1 µM [rising, partial curve] |
| COc1cccc(C(C(=O)NC2CCCC2)N(Cc2cccnc2)C(=O)Cc2cccs2)c1 (configuration not stated) | 0.451% |  |  |
| O=C(Nc1cccc(Cl)c1)Nc1nnc(-c2ccncc2)s1 |  | 0.092 µM [falling, full curve, poor fit] | 3.66 µM [falling, partial curve, poor fit] |
| Cc1ccc(CNS(=O)(=O)c2ccc3oc(C(=O)O)c(C)c3c2)cc1 | -15.3% |  |  |
